Experimental data as given in patent US11597708B2, “Inhibitors of heat shock factors and uses thereof” (HSF Pharmaceuticals SA, priority 2016, dated 2023).
Some results were stated once for a whole list of compounds, not compound by compound.

Assays:
[1] = biological target: T1, recombinant DNA-binding domain fragment of human HSF1 (HSF1DBD-His) (Homo sapiens, UniProt Q00613); experiment: Surface plasmon resonance (SPR), HSF1 DNA-binding domain fragment; conditions: dose-dependent interaction
T1 construct: His
T1 sequence (Q00613 15-120 limits assumed): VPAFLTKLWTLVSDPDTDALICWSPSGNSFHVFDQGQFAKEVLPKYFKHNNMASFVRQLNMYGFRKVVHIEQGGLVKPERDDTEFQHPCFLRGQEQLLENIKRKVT

[2] = biological target: T2, recombinant full-length human HSF1 (HSF1wt-His) (Homo sapiens, UniProt Q00613); experiment: Surface plasmon resonance (SPR), full-length HSF1; assay type: binding; conditions: dose-dependent interaction
T2 construct: His
T2 sequence (Q00613 1-529): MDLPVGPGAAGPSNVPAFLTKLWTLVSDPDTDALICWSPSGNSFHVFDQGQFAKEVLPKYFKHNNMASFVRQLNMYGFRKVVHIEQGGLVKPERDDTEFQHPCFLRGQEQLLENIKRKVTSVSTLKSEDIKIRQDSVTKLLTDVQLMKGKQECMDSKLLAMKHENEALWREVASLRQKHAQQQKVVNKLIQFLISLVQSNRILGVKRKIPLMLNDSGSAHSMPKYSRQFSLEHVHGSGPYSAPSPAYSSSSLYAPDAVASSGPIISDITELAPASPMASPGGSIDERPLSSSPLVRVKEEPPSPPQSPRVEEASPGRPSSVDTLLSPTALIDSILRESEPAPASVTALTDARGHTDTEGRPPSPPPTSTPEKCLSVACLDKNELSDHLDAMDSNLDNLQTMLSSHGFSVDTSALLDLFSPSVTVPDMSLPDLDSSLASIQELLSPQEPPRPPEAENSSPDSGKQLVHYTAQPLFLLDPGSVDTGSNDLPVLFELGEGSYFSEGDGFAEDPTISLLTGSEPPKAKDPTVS

SMILES | compound concentrations at which interactions were detected (SPR) [1] | compound concentrations at which interactions were detected (SPR) [2]
CN(C(=O)/C=C/C1=NCCCO1)c1ncc(-c2cccnc2)s1 [IHSF 115, (E)-3-(5,6-Dihydro-4H-[1,3]oxazin-2-yl)-N-methyl-N-(5-pyridin-3-yl-thiazol-2-yl)-acrylamide] | ≥ 15.6 µM | ≥ 15.6 µM
CCOC(=O)/C=C/C(=O)Nc1ncc(-c2cccnc2)s1 [IHSF 058, (E)-3-(5-Pyridm-3-yl-thiazol-2-ylcarbamoyl)-acrylic acid ethyl ester] | ≥ 15.6 µM | ≥ 15.6 µM
